The supplement of paper PMC6411743
± gives the standard deviation of the averaged measurements. The entries are a selection whose mix differs from that of the whole data set. Most values lie at the level of the controls, where differences are scatter.

The chains behind the UniProt entries cited, without tags or fusion partners. Where a name states a change or a piece, a line headed by the entry shows the natural chain unless it says otherwise.
UniProt Q12904: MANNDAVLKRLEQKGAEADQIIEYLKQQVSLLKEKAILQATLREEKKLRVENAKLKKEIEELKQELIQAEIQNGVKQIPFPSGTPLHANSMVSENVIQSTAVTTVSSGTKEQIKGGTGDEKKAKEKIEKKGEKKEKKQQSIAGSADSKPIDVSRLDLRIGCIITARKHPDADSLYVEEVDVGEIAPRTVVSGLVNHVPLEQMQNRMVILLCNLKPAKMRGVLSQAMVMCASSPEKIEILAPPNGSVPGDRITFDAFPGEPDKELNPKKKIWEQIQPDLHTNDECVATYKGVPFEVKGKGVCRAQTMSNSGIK
UniProt Q13049: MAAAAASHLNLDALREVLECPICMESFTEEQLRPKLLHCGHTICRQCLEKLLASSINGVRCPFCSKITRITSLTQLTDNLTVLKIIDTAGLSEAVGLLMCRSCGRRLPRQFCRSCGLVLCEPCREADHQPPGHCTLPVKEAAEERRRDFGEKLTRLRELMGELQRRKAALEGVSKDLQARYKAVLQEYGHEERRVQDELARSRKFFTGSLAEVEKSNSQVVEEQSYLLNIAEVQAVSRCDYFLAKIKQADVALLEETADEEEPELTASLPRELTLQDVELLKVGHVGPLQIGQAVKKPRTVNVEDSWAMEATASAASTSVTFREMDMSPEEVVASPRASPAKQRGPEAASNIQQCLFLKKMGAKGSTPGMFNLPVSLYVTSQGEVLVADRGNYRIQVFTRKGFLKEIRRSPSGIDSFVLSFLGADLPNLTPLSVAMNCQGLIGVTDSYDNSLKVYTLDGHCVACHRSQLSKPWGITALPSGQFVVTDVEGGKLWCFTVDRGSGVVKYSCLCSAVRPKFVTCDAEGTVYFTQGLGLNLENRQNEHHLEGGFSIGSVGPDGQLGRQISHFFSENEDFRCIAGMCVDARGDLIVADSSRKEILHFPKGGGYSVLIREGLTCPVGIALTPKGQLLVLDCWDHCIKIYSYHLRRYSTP
UniProt Q13409, whole entry: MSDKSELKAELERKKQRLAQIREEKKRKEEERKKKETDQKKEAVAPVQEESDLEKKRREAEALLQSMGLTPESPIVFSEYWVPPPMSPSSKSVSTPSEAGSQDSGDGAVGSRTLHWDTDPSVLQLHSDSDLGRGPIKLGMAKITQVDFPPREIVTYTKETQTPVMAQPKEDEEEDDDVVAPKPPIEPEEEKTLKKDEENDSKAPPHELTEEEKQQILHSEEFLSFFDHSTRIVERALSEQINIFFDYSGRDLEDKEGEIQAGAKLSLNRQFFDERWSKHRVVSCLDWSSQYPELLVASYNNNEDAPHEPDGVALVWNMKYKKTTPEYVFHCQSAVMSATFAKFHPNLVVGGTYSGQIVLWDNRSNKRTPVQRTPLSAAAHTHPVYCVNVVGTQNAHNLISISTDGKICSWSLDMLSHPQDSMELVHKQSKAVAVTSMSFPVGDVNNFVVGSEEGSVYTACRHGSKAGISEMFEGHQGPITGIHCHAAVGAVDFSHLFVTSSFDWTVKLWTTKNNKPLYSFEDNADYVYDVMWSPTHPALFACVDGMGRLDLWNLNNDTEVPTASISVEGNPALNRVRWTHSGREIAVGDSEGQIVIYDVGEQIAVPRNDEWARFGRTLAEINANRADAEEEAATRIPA
UniProt Q13769: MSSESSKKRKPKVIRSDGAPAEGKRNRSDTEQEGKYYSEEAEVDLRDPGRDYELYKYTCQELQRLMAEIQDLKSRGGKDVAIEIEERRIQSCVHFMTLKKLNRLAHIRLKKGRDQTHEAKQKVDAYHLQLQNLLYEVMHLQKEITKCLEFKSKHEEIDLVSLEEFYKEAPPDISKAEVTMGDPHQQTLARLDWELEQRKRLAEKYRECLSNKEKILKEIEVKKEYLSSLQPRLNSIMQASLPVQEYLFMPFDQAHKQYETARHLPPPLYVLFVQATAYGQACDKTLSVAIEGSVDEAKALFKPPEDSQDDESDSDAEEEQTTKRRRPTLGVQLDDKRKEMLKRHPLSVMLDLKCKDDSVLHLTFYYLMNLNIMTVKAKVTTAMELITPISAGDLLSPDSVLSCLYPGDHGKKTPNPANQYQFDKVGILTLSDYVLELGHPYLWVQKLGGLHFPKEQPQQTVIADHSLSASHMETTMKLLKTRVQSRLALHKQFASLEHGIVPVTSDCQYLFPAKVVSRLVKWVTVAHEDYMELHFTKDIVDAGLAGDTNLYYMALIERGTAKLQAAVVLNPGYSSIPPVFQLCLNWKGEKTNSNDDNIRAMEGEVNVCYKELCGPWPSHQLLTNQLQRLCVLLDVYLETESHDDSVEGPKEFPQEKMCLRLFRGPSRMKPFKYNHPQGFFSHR
UniProt Q13895: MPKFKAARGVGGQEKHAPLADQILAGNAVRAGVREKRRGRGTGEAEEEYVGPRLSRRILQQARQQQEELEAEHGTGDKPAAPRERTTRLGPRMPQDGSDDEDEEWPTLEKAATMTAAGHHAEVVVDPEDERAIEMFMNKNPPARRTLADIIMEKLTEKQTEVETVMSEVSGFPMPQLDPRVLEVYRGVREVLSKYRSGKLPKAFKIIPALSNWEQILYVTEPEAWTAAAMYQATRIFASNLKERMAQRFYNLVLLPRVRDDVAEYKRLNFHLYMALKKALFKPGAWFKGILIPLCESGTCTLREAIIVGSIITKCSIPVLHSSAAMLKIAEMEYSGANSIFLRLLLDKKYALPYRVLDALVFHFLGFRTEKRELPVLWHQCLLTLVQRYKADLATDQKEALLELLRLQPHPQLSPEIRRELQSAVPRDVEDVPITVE
UniProt Q13469: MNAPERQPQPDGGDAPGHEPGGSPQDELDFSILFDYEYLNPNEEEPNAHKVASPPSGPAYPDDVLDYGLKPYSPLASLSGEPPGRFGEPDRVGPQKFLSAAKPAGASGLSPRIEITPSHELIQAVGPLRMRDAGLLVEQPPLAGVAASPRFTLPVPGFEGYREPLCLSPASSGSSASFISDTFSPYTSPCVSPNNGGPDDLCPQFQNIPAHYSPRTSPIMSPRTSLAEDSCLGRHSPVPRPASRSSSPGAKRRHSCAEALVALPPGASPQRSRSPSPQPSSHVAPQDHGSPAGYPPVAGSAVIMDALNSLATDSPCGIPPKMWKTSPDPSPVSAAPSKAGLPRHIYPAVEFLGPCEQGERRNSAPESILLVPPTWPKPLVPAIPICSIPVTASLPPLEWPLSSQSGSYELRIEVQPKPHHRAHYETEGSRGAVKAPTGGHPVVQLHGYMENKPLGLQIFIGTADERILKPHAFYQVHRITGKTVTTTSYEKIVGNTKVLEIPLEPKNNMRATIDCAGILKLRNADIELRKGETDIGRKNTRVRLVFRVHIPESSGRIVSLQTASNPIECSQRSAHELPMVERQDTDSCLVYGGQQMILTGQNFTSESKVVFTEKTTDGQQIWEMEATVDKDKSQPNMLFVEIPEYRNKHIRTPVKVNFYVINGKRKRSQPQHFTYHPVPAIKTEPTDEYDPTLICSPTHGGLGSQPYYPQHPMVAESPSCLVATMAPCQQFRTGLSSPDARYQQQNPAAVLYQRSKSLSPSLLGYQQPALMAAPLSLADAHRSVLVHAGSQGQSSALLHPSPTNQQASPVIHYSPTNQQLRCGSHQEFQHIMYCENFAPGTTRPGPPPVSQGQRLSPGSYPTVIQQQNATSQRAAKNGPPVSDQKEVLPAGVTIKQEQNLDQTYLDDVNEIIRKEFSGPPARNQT
UniProt Q12907: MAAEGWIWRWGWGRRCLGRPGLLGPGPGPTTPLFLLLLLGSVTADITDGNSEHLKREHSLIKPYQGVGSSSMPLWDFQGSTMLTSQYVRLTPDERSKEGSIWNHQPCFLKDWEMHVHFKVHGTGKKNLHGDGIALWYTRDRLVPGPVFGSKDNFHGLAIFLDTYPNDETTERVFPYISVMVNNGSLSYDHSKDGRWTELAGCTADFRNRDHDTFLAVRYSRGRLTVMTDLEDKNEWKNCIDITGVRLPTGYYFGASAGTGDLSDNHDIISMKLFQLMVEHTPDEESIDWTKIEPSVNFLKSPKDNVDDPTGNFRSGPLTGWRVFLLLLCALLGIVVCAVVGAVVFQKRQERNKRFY
UniProt Q13445: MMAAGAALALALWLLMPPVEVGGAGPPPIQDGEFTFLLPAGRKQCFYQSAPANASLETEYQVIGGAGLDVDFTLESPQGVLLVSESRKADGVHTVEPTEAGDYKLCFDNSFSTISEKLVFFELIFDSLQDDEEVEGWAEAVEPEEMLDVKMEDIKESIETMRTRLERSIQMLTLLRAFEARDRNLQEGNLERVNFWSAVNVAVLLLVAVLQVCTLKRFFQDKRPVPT
UniProt Q14642: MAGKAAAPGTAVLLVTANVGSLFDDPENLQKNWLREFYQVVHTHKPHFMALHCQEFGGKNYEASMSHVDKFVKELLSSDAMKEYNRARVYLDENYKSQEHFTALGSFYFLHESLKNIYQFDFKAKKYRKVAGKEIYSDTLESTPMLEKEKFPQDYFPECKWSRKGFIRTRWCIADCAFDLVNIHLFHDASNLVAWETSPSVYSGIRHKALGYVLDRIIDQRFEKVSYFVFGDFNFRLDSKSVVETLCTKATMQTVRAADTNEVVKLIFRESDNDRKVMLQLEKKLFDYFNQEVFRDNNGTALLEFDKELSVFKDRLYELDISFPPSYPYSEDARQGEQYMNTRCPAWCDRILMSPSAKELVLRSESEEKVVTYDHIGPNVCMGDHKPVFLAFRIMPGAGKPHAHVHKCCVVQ
UniProt Q14974, whole entry: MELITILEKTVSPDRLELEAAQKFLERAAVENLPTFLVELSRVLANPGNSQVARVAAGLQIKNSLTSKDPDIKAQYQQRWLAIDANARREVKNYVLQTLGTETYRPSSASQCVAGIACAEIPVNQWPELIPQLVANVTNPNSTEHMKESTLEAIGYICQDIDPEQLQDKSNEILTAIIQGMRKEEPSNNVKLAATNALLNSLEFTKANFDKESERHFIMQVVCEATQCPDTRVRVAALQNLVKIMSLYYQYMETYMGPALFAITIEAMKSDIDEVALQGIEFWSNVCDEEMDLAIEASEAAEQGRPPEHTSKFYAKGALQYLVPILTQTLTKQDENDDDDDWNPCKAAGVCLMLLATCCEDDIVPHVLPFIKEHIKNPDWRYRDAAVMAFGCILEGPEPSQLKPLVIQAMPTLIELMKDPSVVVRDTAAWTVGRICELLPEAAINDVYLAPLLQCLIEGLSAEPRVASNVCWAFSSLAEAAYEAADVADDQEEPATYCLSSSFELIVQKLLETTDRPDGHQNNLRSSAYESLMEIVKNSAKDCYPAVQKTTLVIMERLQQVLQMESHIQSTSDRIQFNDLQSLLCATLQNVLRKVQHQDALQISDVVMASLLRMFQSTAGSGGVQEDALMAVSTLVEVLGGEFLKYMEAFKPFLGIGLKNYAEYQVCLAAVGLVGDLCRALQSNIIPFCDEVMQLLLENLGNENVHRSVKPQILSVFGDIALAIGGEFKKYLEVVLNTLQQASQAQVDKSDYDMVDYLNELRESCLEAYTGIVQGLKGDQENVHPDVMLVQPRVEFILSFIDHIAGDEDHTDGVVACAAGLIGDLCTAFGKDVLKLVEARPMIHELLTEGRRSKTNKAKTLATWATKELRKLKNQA
UniProt Q13148, whole entry: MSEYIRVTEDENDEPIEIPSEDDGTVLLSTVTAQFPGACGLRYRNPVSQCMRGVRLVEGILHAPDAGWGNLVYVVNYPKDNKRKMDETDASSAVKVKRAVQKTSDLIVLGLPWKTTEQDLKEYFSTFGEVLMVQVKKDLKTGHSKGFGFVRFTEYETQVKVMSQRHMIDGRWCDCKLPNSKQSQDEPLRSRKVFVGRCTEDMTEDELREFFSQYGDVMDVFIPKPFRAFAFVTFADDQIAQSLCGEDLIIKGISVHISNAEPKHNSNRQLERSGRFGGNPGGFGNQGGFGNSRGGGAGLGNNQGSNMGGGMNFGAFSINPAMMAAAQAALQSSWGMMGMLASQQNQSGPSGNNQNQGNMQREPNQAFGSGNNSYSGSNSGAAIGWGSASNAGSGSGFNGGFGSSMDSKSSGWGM
UniProt Q13057: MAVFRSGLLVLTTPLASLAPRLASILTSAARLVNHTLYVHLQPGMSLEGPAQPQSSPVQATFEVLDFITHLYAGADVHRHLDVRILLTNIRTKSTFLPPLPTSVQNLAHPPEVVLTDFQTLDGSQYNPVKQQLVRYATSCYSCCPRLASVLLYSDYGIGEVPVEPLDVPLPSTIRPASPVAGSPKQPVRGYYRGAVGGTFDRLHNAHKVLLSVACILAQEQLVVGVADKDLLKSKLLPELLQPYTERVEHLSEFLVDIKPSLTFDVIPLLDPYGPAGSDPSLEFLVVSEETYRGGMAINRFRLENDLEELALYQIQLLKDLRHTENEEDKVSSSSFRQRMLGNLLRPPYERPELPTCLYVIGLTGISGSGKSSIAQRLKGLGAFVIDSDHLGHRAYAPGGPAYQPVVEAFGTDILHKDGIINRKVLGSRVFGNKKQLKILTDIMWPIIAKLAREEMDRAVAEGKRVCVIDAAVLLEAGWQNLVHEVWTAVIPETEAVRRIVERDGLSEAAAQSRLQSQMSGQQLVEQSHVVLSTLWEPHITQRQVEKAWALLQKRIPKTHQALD

Compound: Nc1ncnc2c1ncn2[C@@H]1O[C@H](COP(=O)(O)OP(=O)(O)NP(=O)(O)O)[C@@H](O)[C@H]1O [adenylyl imidodiphosphate]
Assay: NP40-soluble protein abundance relative to vehicle (solubility fold change) (ratio); higher = more soluble protein in presence of AMP-PNP
How it was run: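 Jurkat crude lysate prepared with a Dounce homogeniser was treated at eight concentrations spanning 0.1 to 10 mM, 10 min at room temperature then 3 min at 37 °C. Solubilisation with 0.8% NP40 and benzonase and ultracentrifugation preceded TMT labelling of the supernatant for LC-MS/MS. Fold change against the detergent-processed vehicle was determined per replicate from vsn-normalised intensities, across three independent experiments.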

Target	NP40-soluble protein abundance (concentration: 0.1mM)	NP40-soluble protein abundance (concentration: 0.5mM)
UniProt Q12904	1.02 ± 0.082	1.03 ± 0.051
TRIM32 (UniProt Q13049)	1 ± 0.014	1.03 ± 0.03
UniProt Q13409-3|Q13409-2	0.989 ± 0.034	0.974 ± 0.059
THOC5 (UniProt Q13769)	1.2 ± 0.082	1.25 ± 0.16
EIF3I (UniProt Q13347)	0.996 ± 0.015	1.01 ± 0.028
BYSL (UniProt Q13895)	1.02 ± 0.032	1.02 ± 0.011
TARBP1 (UniProt Q13395)	1.04 ± 0.051	1.01 ± 0.091
EIF3A (UniProt Q14152)	1.03 ± 0.025	1.03 ± 0.037
UniProt Q13469 and related entries	0.974 ± 0.016	0.9877 ± 0.0079
LMAN2 (UniProt Q12907)	1.02 ± 0.035	0.983 ± 0.072
TMED1 (UniProt Q13445)	1.02 ± 0.025	0.988 ± 0.038
UniProt Q14642 and related entries	1 ± 0.026	0.998 ± 0.029
PLS1 (UniProt Q14651)	1 ± 0.053	1.051 ± 0.0073
CPSF1 (UniProt Q10570)	1.043 ± 0.0076	0.99 ± 0.058
UniProt Q13555-2|Q13555-8|Q13555-9|A0A0A0MT11|Q13555 and related entries	0.985 ± 0.024	0.957 ± 0.046
KPNB1 (UniProt Q14974)	1.01 ± 0.032	1.01 ± 0.011
UniProt Q12800 and related entries	1.01 ± 0.022	0.953 ± 0.031
TARDBP (UniProt Q13148)	0.981 ± 0.032	1.01 ± 0.03
UniProt Q13561 and related entries	0.991 ± 0.053	1 ± 0.056
UniProt Q13057 and related entries	1.01 ± 0.024	0.9983 ± 0.0075
UniProt Q12824	1.02 ± 0.076	0.963 ± 0.071
RRS1 (UniProt Q15050)	1.03 ± 0.018	0.979 ± 0.022

2 records drawn at random from those above:
Target	NP40-soluble protein abundance (concentration: 0.1mM)	NP40-soluble protein abundance (concentration: 0.5mM)
UniProt Q13469 and related entries	0.974 ± 0.016	0.9877 ± 0.0079
TRIM32 (UniProt Q13049)	1 ± 0.014	1.03 ± 0.03
